Reference: US20080206469A1, “Aqueous compositions and processes including fluorocarbons” (priority 2007, published 2008)

Test: Block resistance testing of coatings (based on ASTM D4946-89)
Set-up: key: 10: No tack; 09: Trace tack; 08: Slight tack; 07: Slight tack; 06: Moderate tack; 05: Moderate tack; 04: Severe tack, but no seal; 03: 05%-25% seal; 02: 25%-50% seal; 01: 50%-75% seal; 100% seal
Details: for Block Rating after Drying 7 Day RT: 7 day dry; for Block Rating after Drying 4 Day RT: 4 day dry
[1] = fluorocarbon level 10000 ppm on binder solids
[2] = fluorocarbon level 5000 ppm on binder solids
[3] = fluorocarbon level 1000 ppm on binder solids

SMILES | Block Rating after Drying 7 Day RT [1] | Block Rating after Drying 7 Day RT [2] | further results
N.O=S(=O)(O)OCC(F)(F)C(F)(F)C(F)(F)F [Example 9] | 10 |  | 
O=S(=O)([O-])C(F)(F)C(F)(F)C(F)(F)C(F)(F)C(F)(F)C(F)(F)F.[K+] [Example 14] | 10 |  | 
N.N.O=P(O)(O)OCC(F)(F)C(F)(F)C(F)(F)F [Example 8] |  | 10 | Block Rating after Drying 4 Day RT [2]: 10
N.O=S(=O)(O)OCCC(F)(F)C(F)(F)C(F)(F)C(F)(F)F [Example 13, Nonafluorohexyl Sulfate] | 10 | 10 | Block Rating after Drying 4 Day RT [1]: 10
N.N.O=P(O)(O)OCCC(F)(F)C(F)(F)C(F)(F)C(F)(F)F [Example 12, Nonafluorohexyl Phosphate] |  |  | Block Rating after Drying 4 Day RT [3]: 10; Block Rating after Drying 7 Day RT [3]: 10
